For two molecules, binding results are on record in doi:10.1101/2020.09.03.281279.

For assay [1], the target named is T1, YabO with a C-terminal FLAG3-tag (B. subtilis) (UniProt P37557).
T1 sequence: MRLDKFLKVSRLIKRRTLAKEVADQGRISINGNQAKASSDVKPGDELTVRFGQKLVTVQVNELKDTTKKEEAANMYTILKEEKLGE
In words: cryo-EM structure.

Assay [2] addresses T2, RqcH C-terminally tagged with a FLAG3 epitope (B. subtilis) (UniProt O34693).
T2 sequence: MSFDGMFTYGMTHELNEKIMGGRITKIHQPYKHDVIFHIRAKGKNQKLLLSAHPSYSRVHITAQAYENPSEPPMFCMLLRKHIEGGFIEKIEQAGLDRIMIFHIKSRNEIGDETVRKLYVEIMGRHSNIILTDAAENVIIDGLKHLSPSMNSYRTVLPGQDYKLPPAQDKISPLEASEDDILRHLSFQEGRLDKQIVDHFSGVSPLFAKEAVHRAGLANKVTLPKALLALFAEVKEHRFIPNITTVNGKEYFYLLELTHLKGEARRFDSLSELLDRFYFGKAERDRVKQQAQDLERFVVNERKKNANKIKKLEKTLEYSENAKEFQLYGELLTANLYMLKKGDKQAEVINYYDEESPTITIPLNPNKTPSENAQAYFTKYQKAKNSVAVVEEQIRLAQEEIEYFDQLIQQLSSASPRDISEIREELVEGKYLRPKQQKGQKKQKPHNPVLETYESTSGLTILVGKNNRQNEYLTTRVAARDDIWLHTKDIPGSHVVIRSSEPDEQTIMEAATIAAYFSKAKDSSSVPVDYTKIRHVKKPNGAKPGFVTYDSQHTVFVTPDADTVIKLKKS
In words: cryo-EM structure.

No constants are given. Whether binding was seen depends on the method and setting. Some entries that bind do so weakly or less than the wild type. Sequences can lack the tags named with a protein.

B1: RqcH (endogenous, found in the YabO-FLAG3 pull-out) (protein, UniProt O34693 1-570)
chain: T2 sequence
As to B1, the binding result in assay [1] is listed as “binds”.

B2: YabO (endogenous, found in the RqcH-FLAG3 pull-out) (protein, UniProt P37557 1-86)
chain: T1 sequence
For the molecule B2, the binding entry in assay [2] is “binds”.
